Test results taken from publication PMC4755751 (eLife, 2015).

By UniProt entry, the sequences of proteins in these tests, tags left out.
UniProt Q5U249: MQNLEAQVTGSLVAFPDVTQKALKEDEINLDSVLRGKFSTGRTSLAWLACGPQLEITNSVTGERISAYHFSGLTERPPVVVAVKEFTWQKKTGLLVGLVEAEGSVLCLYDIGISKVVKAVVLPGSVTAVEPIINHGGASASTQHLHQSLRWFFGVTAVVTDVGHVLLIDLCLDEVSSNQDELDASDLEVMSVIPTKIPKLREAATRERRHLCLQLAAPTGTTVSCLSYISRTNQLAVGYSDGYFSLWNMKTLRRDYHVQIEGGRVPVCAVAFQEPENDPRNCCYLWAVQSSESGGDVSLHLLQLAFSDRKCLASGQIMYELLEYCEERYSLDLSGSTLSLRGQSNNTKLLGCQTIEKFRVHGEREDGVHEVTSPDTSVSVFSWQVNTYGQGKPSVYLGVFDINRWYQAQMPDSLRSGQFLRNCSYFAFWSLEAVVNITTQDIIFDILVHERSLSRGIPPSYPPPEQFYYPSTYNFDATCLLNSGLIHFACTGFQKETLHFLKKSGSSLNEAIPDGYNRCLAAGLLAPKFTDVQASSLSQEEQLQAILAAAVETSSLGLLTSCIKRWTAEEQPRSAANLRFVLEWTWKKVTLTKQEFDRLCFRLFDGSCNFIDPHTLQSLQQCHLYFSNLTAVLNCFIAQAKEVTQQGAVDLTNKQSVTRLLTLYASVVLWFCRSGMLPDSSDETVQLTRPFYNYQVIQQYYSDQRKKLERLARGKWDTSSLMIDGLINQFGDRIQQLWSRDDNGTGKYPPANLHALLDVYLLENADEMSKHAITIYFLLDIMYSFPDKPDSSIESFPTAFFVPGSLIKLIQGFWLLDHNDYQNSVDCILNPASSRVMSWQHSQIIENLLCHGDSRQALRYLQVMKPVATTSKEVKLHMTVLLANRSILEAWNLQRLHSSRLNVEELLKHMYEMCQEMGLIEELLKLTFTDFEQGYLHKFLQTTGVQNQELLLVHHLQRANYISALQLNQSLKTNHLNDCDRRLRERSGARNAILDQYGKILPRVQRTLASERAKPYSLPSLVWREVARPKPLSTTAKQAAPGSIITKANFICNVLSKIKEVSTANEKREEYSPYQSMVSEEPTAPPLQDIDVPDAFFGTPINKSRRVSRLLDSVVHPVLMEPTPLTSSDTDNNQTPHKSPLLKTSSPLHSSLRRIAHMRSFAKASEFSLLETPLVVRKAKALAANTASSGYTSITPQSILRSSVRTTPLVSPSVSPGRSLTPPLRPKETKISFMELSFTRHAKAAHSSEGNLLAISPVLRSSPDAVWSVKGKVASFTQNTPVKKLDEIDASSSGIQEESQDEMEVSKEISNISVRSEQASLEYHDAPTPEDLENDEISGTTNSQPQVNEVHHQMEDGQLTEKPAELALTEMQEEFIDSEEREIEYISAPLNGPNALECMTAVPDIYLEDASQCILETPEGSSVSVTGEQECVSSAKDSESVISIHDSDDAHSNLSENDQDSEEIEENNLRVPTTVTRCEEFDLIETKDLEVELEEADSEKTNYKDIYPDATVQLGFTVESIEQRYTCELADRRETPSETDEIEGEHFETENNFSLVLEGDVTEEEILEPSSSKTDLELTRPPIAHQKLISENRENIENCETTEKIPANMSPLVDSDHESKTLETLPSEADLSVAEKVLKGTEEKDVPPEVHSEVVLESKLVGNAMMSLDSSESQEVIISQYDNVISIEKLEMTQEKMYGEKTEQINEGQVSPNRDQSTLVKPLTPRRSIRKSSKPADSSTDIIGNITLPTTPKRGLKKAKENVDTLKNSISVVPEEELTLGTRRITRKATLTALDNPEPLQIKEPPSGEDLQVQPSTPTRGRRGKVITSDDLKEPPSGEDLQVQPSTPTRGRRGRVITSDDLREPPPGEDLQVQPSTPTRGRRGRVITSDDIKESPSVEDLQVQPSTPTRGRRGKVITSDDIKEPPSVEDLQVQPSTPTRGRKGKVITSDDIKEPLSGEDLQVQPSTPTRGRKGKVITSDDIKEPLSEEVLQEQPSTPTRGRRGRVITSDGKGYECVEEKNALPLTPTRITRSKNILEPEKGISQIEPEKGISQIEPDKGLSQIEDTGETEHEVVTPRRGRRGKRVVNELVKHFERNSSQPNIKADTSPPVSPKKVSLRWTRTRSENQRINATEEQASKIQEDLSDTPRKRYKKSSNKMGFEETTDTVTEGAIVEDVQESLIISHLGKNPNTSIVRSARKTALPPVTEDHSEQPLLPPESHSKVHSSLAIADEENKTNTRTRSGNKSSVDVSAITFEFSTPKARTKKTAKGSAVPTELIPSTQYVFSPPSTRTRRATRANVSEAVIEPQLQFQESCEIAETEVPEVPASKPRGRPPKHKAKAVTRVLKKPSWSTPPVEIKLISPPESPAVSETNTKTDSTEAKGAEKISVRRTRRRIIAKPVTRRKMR
UniProt Q5EE04: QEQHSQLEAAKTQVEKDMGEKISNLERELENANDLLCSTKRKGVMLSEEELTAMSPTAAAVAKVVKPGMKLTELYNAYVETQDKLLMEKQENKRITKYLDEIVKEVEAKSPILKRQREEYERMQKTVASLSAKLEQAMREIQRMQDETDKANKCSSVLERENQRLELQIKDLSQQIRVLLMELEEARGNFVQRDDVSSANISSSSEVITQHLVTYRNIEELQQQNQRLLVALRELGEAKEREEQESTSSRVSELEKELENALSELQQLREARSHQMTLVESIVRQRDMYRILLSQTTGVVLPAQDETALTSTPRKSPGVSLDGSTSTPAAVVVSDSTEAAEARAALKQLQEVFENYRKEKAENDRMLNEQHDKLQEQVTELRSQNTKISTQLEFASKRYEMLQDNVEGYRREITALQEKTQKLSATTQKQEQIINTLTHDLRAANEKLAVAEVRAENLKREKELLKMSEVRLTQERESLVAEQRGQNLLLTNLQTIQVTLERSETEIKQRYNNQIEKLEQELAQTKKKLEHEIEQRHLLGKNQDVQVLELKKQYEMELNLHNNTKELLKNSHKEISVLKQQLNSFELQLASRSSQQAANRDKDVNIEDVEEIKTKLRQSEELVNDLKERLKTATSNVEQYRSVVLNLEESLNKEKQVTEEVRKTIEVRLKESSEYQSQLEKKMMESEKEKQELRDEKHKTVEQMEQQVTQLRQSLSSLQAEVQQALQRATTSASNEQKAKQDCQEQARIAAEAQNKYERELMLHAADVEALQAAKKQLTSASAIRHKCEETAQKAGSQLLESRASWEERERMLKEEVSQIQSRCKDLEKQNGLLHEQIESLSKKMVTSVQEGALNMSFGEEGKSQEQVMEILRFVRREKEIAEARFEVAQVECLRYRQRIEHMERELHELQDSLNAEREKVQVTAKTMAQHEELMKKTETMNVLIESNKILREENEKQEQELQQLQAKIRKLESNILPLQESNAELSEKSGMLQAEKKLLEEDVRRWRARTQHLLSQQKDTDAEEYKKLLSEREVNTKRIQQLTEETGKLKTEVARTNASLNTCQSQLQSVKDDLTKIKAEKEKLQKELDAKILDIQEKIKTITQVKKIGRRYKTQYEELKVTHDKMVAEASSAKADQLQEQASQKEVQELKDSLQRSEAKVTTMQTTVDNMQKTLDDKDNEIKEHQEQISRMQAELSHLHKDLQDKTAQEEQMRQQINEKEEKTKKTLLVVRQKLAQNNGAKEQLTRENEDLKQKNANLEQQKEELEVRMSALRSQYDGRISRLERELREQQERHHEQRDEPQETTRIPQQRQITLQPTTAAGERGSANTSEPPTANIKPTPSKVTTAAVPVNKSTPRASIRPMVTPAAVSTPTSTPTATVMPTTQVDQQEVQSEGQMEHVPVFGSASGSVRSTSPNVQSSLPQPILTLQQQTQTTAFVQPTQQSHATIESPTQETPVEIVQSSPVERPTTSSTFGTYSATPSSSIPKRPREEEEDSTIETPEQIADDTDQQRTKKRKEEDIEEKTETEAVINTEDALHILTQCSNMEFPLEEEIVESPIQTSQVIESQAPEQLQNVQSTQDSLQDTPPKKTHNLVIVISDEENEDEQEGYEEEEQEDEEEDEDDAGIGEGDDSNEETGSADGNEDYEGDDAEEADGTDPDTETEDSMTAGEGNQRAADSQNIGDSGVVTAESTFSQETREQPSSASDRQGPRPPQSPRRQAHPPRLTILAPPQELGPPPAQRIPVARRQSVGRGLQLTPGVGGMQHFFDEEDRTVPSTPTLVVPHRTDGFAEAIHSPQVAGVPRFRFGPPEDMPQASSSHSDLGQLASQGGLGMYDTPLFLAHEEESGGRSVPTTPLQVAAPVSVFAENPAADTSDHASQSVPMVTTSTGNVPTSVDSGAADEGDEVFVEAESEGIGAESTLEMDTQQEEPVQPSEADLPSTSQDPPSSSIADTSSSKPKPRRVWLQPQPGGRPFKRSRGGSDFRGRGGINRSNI

Biological target: T1, Nup85 (endogenous, Xenopus egg extract) (Xenopus (endogenous in egg extract)) (UniProt Q68FJ0)
T1 sequence: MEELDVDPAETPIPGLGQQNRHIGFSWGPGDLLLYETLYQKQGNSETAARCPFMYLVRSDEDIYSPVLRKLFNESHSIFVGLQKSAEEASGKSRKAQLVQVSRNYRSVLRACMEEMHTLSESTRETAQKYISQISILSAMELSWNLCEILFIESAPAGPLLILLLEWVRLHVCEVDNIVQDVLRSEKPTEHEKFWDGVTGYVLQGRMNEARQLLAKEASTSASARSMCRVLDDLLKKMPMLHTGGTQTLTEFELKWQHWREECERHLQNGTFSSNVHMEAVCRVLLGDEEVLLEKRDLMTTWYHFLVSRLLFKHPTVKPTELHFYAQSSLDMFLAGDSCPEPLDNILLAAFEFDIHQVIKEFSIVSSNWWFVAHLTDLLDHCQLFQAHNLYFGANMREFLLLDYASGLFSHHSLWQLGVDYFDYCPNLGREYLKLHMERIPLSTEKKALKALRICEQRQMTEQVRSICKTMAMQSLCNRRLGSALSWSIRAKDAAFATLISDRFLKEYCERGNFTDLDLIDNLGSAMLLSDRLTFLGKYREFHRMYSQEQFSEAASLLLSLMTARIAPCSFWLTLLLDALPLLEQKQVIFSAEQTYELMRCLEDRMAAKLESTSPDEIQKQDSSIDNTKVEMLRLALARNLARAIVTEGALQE
Assay: affinity purification with mass spectrometry; endogenous nucleoporin complexes retrieved from Xenopus egg extract (HSS) through a nanobody against one member on magnetic Streptavidin beads, 1 h at 4°C, washes up to 300 mM NaCl, 0.05% Tween-20; RanQ69L•GTP wash for the anti-Nup98 and anti-Nup54 nanobodies; elution by SUMOStar protease; bands identified by mass spectrometry

| Substance | binding |
| --- | --- |
| Elys (endogenous, Xenopus egg extract) (from UniProt Q5U249 1-2408) | binds |
| Tpr (endogenous, Xenopus egg extract) (from UniProt Q5EE04 1-1997) | binds |

No constants are given. Whether binding was seen depends on the method and setting. Binding seen in cells or lysates may run through a third protein. These calls come from enrichment with a bait or labelling near it, and not all partners need be listed.
